Microarray screen: hit calls

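The test is a small-molecule microarray: each compound is printed twice on a reactive slide, and binding shows as fluorescence of the labelled oligonucleotide after washing. For the PreQ1, TPP and SAM-II riboswitches the laboratory earlier reported (doi:10.1038/s41467-019-09493-3) 1 µM RNA, 2 h, and a rule that included a mean Z-score above 3 (spot signal-to-noise against the whole library), a score well above that on a control array, and duplicate spots agreeing (coefficient of variation under 100). The data file gives only the calls; its cut-offs may differ, and compounds hitting several targets are kept. The calls come from the array alone, and fixing a compound to the slide can hide its binding.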
A compound is marked active if it was called a hit and inactive if it was screened but was not.
Compounds were drawn at random from those tested, without regard to their results.
A dash means that no call is listed here.

Oligonucleotides screened, 5′ to 3′:
SAM-II: SAM-II riboswitch RNA pseudoknot, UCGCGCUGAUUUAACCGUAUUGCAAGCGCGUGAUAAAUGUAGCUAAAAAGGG. About 200 hits among about 21,000 compounds.
TPP: TPP riboswitch RNA three-way junction, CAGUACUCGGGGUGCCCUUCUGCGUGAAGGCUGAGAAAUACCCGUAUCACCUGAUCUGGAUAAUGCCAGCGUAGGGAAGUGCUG. About 160 hits among about 24,000 compounds.
PreQ1: PreQ1 riboswitch RNA pseudoknot, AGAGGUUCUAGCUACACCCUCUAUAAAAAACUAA. From B. subtilis. About 170 hits among about 24,000 compounds.

| # | SMILES | SAM-II | TPP | PreQ1 |
|---|---|---|---|---|
| 1 | `Cc1c(-c2cnn(C)c2)nc(N)c(C#N)c1-c1ccc2c(c1)OCCO2` | inactive | inactive | inactive |
| 2 | `CSc1nnc(-c2cccs2)[nH]1` | inactive | inactive | inactive |
| 3 | `OC1(CNCCc2nccc(-c3ccccc3)n2)CNCCOC1` (stereo not shown) | inactive | inactive | inactive |
| 4 | `CNC(=O)c1ccc(CNCC(=O)NC(C)c2ccc(C)cc2)o1` (stereo not shown) | inactive | inactive | inactive |
| 5 | `C=CCN1C(=O)C2(C(C#N)=C(N)OC(C)=C2C(=O)OCC)c2ccccc21` (stereo not shown) | inactive | inactive | inactive |
| 6 | `CCOC(=O)c1c(NC(=O)CNCc2ccccc2)sc(C)c1C` | inactive | inactive | inactive |
| 7 | `CN1CCCN(C[C@H]2C[C@H](CO)CN(C(=O)c3ccccc3)C2)CC1` | inactive | inactive | inactive |
| 8 | `O=C(CN1CCc2ccccc2C1)N1CC[C@H]2NCCC[C@]2(CO)C1` | inactive | inactive | inactive |
| 9 | `Nc1nnc(Cc2ccc(F)cc2)s1` | inactive | inactive | inactive |
| 10 | `COc1ccccc1OCC(O)Cn1c(C2CC(=O)N(c3cccc(F)c3)C2)nc2ccccc21` (stereo not shown) | - | inactive | inactive |
| 11 | `Cc1cc(C(=O)NCCNc2cccnc2)nc(N)n1` | inactive | inactive | inactive |
| 12 | `Cc1nonc1C(=O)N[C@H]1CC[C@H]1NC1CCCCCC1` | inactive | inactive | inactive |
| 13 | `O=C1OC(Nc2cccc(Cl)c2)c2ccccc21` (stereo not shown) | inactive | inactive | inactive |
| 14 | `CCOc1ccc(-c2cc(N)c(C(=O)OC)s2)cc1` | - | inactive | inactive |
| 15 | `CC(C)CCOc1cccc(C2c3c(-c4ccccc4O)n[nH]c3C(=O)N2CCO)c1` (stereo not shown) | - | inactive | inactive |
| 16 | `Cc1csc2c(N3CCCC(n4cc(C(=O)NCCO)nn4)C3)ncnc12` (stereo not shown) | inactive | inactive | inactive |
| 17 | `C[C@@H]1C[C@H]2[C@@H]3CCC4=CC(=O)C=C[C@]4(C)[C@@]3(Cl)[C@@H](O)C[C@]2(C)[C@@]1(OC(=O)c1ccco1)C(=O)CCl` | inactive | inactive | inactive |
| 18 | `CC(C)CCN1C(=O)N(CC(=O)NCc2cccs2)C(=O)C12CCNCC2` | inactive | inactive | inactive |
| 19 | `O=C(c1nnc2n1CCCC2)N1CCN(Cc2ccccc2)CC(O)C1` (stereo not shown) | inactive | inactive | inactive |
| 20 | `C=C(C)CCC(C)NCCN(C)S(C)(=O)=O` (stereo not shown) | inactive | inactive | inactive |
| 21 | `COc1cccc(OC)c1-c1cc(C(=O)NC2(C(=O)O)C3CC4CC(C3)CC2C4)nn1-c1ccnc2cc(Cl)ccc12` (stereo not shown) | inactive | inactive | inactive |
| 22 | `Cc1ccc(NC(=O)c2cccc(N(C)C)c2)cc1NC(=O)c1ccc(O)cc1` | inactive | inactive | inactive |
| 23 | `Cc1ccc(NCCCNC(=O)c2cn(CCN)nn2)nc1` | inactive | active | active |
| 24 | `CCOC(=O)[C@]12CCCN[C@@H]1CCN(C(=O)c1ccccc1-c1nccn1C)C2` | inactive | inactive | inactive |
| 25 | `OC1CCCOC12CCN(c1nnc3ccccn13)CC2` (stereo not shown) | inactive | inactive | inactive |
| 26 | `Cc1nnnn1CCCN1C(=O)NC2(CCNCC2)C1=O` | inactive | inactive | inactive |
| 27 | `CNc1nc2c(c(=O)n(C)c(=O)n2C)n1CC(O)COc1ccc(OC)cc1` (stereo not shown) | inactive | inactive | inactive |
| 28 | `OCCN1CN(CCc2ccccc2)c2nc3ccccc3n2C1` | inactive | inactive | inactive |
| 29 | `NCc1ccc(-c2nc(C3CCOCC3)nn2C2CCCCC2)cc1` | inactive | inactive | inactive |
| 30 | `O=C(CCCN1CCC2(CC1)CNC(C(=O)O)C2)c1ccccc1` (stereo not shown) | inactive | inactive | inactive |
| 31 | `CC(C)[C@H](N)c1nnc(SCc2c(Cl)cccc2Cl)o1` | inactive | inactive | inactive |
| 32 | `C=CCC1Cc2ccccc2N1.Cl` (stereo not shown) | inactive | inactive | inactive |
| 33 | `COc1ccc(C(=O)CC(O)Cc2cc(OC)c3c(c2)OCO3)cc1` (stereo not shown) | inactive | inactive | inactive |
| 34 | `O=C1c2ccccc2C(Nc2ccc(Br)cc2)N1c1ccc(Cl)cn1` (stereo not shown) | inactive | inactive | inactive |
| 35 | `O=C1c2ccccc2C(Nc2ccc(F)cc2)N1c1ccccn1` (stereo not shown) | inactive | inactive | inactive |
| 36 | `Cc1cccc(N2CC(c3nc4ccccc4n3CC(O)COc3ccccc3)CC2=O)c1` (stereo not shown) | - | inactive | inactive |
| 37 | `Nc1nonc1C(=O)NCCNCc1cccc(OCc2ccc(Cl)cc2)c1` | inactive | inactive | inactive |
| 38 | `CCCC1(CO)CCCN(Cc2ccn(CC)n2)C1` (stereo not shown) | inactive | inactive | inactive |
| 39 | `CSc1nc2ccccc2n1CCO` | inactive | inactive | inactive |
| 40 | `C[C@H](NC(=O)[C@@H](O)c1cc(F)cc(F)c1)C(=O)N[C@@H]1C(=O)N(C)c2ccccc2-c2ccccc21` | inactive | inactive | inactive |
| 41 | `OCCCCc1nccc2c1[nH]c1ccccc12` | inactive | inactive | inactive |
| 42 | `Cc1ccc(CN2CC[C@@H](NC(=O)c3cccnc3)[C@H](O)C2)s1` | inactive | inactive | inactive |
| 43 | `COc1ccc([C@@H](O)[C@@H](C)Oc2ccc([C@H]3O[C@H](c4ccc(O[C@H](C)[C@H](O)c5ccc(OC)c(OC)c5)c(OC)c4)[C@H](C)[C@H]3C)cc2OC)cc1OC` | inactive | inactive | inactive |
| 44 | `Cc1ccc(Nc2cc(N3CCN(S(=O)(=O)c4ccccc4)CC3)nc(C)n2)cc1` | - | inactive | inactive |
| 45 | `COc1ccccc1Nc1nc2nonc2nc1N1CCCCC1C` (stereo not shown) | inactive | inactive | inactive |
| 46 | `O=C(c1ccccc1-c1ncc[nH]1)N1CC[C@@H](c2ccc3c(c2)OCO3)[C@H](O)C1` | inactive | inactive | inactive |
| 47 | `Nc1nnc(CCNC(=O)c2onc3ccccc23)s1` | inactive | inactive | inactive |
| 48 | `Cc1cc(-c2nc(-c3ccncc3)nn2CCO)c(C)o1` | inactive | inactive | inactive |
| 49 | `COCCNc1nc2c(c(=O)n(Cc3ccc(OC)cc3)c(=O)n2C)n1C` | inactive | inactive | inactive |
| 50 | `Nc1c(Nc2ccc(Br)cc2)c2ccccc2oc1=O` | inactive | inactive | inactive |
| 51 | `Cc1ccc(NC2OC(=O)c3ccccc32)cc1F` (stereo not shown) | inactive | inactive | inactive |
| 52 | `Cc1ccc(NC(=O)Nc2nc3ccccc3s2)cc1NC(=O)Nc1nc2ccccc2s1` | inactive | inactive | inactive |
| 53 | `O=C1OCC(CO)N1Cc1cccc(Cl)c1F` (stereo not shown) | inactive | inactive | inactive |
| 54 | `CC[n+]1cn(CC(O)COc2ccccc2)c2cc(C)c(C)cc21` (stereo not shown) | inactive | inactive | inactive |
| 55 | `c1ncn(Cc2ccc(NCc3ccc4[nH]ccc4c3)cc2)n1` | inactive | inactive | inactive |
| 56 | `CCOC(=O)c1c(N)sc(C(=O)Nc2ccc(OC)cc2)c1C` | inactive | inactive | inactive |
| 57 | `CC1(C)CC2(CC(C)(C)N1)OC(=O)N(CC(O)c1ccccc1)C2(C)O` (stereo not shown) | inactive | inactive | inactive |
| 58 | `CSc1nc(=S)cc(C)[nH]1` | inactive | inactive | inactive |
| 59 | `Cn1ncc2c(Nc3ccc(F)cc3)nc(N3CCCCC3)nc21` | - | inactive | inactive |
| 60 | `O=C(CCc1c[nH]c2ccccc12)N1C[C@H](O)[C@@H](N2CCOCC2)C1` | inactive | inactive | inactive |
| 61 | `Cc1cc(S(=O)(=O)[C@H]2CS(=O)(=O)C[C@@H]2NCc2ccccc2Cl)ccc1F` | - | inactive | inactive |
| 62 | `CN(C)C(=O)Cn1nc(C2CCNCC2)n(Cc2ccccc2)c1=O` | inactive | inactive | inactive |
| 63 | `Cc1ccc(CN2c3ccccc3C3=C(C(c4ccccc4Cl)C(C#N)=C(N)O3)S2(=O)=O)cc1` (stereo not shown) | - | inactive | inactive |
| 64 | `CC1(Cc2ccc3c(c2)OCO3)CCCN(C(=O)Cn2nnnc2N)C1` (stereo not shown) | inactive | inactive | inactive |
| 65 | `CCc1c(C)nn(CC(=O)N2CCC(Cc3ccc(CO)cc3)C2)c1C` (stereo not shown) | inactive | inactive | inactive |
| 66 | `Cc1nc(N)cc(N2C[C@H]3C[C@H](O)[C@H](O)C[C@H]3C2)n1` | inactive | inactive | inactive |
| 67 | `CN1C(=O)CC[C@@]2(C)C1=CC[C@@H]1[C@@H]2CC[C@@]2(C)[C@H]1CC[C@]2(C)O` | inactive | inactive | inactive |
| 68 | `CCOC(=O)c1[nH]c2ccc(F)cc2c1N` | inactive | inactive | inactive |
| 69 | `CN(C)c1nc(NC2CC2)nc(-n2cnc(SCc3ccccc3)n2)n1` | - | inactive | inactive |
| 70 | `Cc1cc(C)cc(OCC(O)Cn2c(C3CC3)nc3ccccc32)c1` (stereo not shown) | - | inactive | inactive |
| 71 | `CCCCOc1ccc(S(=O)(=O)N2CCN(c3cc(C)nc(NC4CCCCC4)n3)CC2)cc1` | - | inactive | inactive |
| 72 | `Cn1cc(CNC(=O)c2ccc(S(=O)(=O)N3CC[C@H](N)C3)cc2)cn1` | inactive | inactive | inactive |
| 73 | `CCOc1ccccc1Nc1c(-c2ccc(Cl)cc2)c(=O)c1=O` | - | inactive | inactive |
| 74 | `O=C(NC1CC1)c1ccnc(-c2cccc3c2CCNC3)c1` | inactive | inactive | inactive |

The last 6 entries again:

| SMILES | SAM-II | TPP | PreQ1 |
|---|---|---|---|
| `CN(C)c1nc(NC2CC2)nc(-n2cnc(SCc3ccccc3)n2)n1` | - | inactive | inactive |
| `Cc1cc(C)cc(OCC(O)Cn2c(C3CC3)nc3ccccc32)c1` (stereo not shown) | - | inactive | inactive |
| `CCCCOc1ccc(S(=O)(=O)N2CCN(c3cc(C)nc(NC4CCCCC4)n3)CC2)cc1` | - | inactive | inactive |
| `Cn1cc(CNC(=O)c2ccc(S(=O)(=O)N3CC[C@H](N)C3)cc2)cn1` | inactive | inactive | inactive |
| `CCOc1ccccc1Nc1c(-c2ccc(Cl)cc2)c(=O)c1=O` | - | inactive | inactive |
| `O=C(NC1CC1)c1ccnc(-c2cccc3c2CCNC3)c1` | inactive | inactive | inactive |

From ROBIN, a set of small-molecule microarray screens (doi:10.1002/anie.202211358).